Assay results taken from US20220281990A1 (MERRIMACK PHARMACEUTICALS, published 2022).
These are yes or no findings as the source states them, for the method shown. Some results given as binding are weak or reduced against the parent protein; the word gives no strength.

By UniProt entry, the sequences of proteins in these tests, tags left out. Where a name states a change or a piece, a line headed by the entry shows the natural chain unless it says otherwise.
UniProt P20333: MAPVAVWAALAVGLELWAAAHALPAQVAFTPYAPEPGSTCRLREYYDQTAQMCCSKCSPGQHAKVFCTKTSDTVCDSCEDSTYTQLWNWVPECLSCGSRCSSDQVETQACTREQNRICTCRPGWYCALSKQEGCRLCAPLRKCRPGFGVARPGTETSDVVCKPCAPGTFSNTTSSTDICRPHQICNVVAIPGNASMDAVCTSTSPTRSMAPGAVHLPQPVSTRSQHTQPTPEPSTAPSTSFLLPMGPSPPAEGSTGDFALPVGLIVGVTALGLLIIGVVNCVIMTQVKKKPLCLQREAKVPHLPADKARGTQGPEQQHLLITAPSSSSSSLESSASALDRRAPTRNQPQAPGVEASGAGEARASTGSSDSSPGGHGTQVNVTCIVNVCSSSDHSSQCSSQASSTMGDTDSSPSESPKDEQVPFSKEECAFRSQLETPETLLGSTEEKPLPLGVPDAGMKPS

What was measured:
[1] = molecular target: biotin-labeled human TNFR2 (immobilized on streptavidin biosensors) (human) (UniProt P20333); assay: BLI sensorgram (FIG. 15)
[2] = molecular target: biotin-labeled human TNFR2 (immobilized on streptavidin biosensors) (human) (UniProt P20333); assay: biolayer interferometry, biotin-labeled hTNFR2 (5 ug/mL) on streptavidin biosensor already loaded with the comparator antibody; antibody at 20 ug/mL
[3] = molecular target: biotin-labeled human TNFR2 (immobilized on streptavidin biosensors) (human) (UniProt P20333); assay: BLI; biotin-labeled human TNFR2 captured on streptavidin biosensors

Measured: binding

B1: UC2.3.8-IgG1 (antibody, V domains shown)
VH: QVQLLESGGGLVQPGGSLRLSCAASGFTFSTYAMSWIRQAPGKGLEWVSIISDGGDATVYADSVKGRFTISRDNNRNTLYLQMNSLRAEDTAVYYCARDGTSAAAFDSWGQGTLVTVSS
VL: DIQMTQSPSSLSASVGDRVTITCQASQDITNFLNWYQQKPGKAPKLLIYDASRRRAGVPSRFSGSGSGTDFTFTISSLQPEDIATYYCQQSDSYPITFGQGTKVEIKR
notes: Full-length human IgG1; UC2.3.3 heavy chain combined with UC2.3.7 light chain; also called anti-human TNFR2 IgG UC2.3.8
binds: all assays above
